PubChem BioAssay AID1259276 | Sanger Institute | 2017
In all, the deposit lists 794 reagents; shown is a part drawn at random. 24 of all reagents (3%) count as active. 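Calls come only from the siRNA-alone arm; drug synergy scores do not affect them.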 Reagents against one gene are numbered here. No viability above 1 is reported: the scale is capped. Further read-outs or replicates are left out here. Reagent sequences are not shown. Not given: the amount of reagent, the time to read-out.

Aim: 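Find kinases whose silencing cuts viability alone or combined with BYL719, cetuximab or trametinib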 (primary screen)
Cell system: human C2BBe1 colorectal cancer cells
Reagent: siRNA pool against human genes
Treatment: DMSO vehicle, or one anchor drug: BYL719 at 1 µM, cetuximab at 5 µg/ml, or trametinib at 10 nM; exposure length not stated
Read-out: 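Cell viability as a fraction of non-targeting control wells, mean of replicates, also as a control-based robust z-score, plus a synergy score for each anchor drug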
Direction: viability robust z-score, siRNA alone and viability vs control, siRNA alone: higher = more viable cells after knock-down; synergy score with BYL719: higher = stronger combined killing with BYL719; synergy score with cetuximab: higher = stronger combined killing with cetuximab
Call rule: 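Called essential when knock-down alone gives a viability robust z-score below -3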
Calls: active = essential (siRNA alone); inactive = no change (siRNA alone)

gene knocked down,pool no.,"viability robust z-score, siRNA alone","viability vs control, siRNA alone",synergy score with BYL719,synergy score with cetuximab,activity call
STK39 (serine/threonine kinase 39),1,0.472,1,0.168,0.112,inactive
TRIB2 (tribbles pseudokinase 2),1,0.472,1,0.0352,-0.0115,inactive
ERBB2 (erb-b2 receptor tyrosine kinase 2),1,0.472,1,-0.142,-0.0115,inactive
"CKM (creatine kinase, M-type)",1,0.472,1,-0.109,0.0498,inactive
MAST4,1,0.472,1,-0.00476,-0.0115,inactive
"YES1 (YES proto-oncogene 1, Src family tyrosine kinase)",1,0.472,1,-0.0165,-0.0115,inactive
ATRX (ATRX chromatin remodeler),1,0.472,1,-0.142,-0.0115,inactive
RBKS (ribokinase),1,0.472,1,0.0341,-0.0115,inactive
PKN1 (protein kinase N1),1,0.472,1,-0.142,-0.0115,inactive
SIK1 (salt inducible kinase 1),1,0.472,1,0.104,-0.0115,inactive
GRK3 (G protein-coupled receptor kinase 3),1,-0.706,0.926,-0.202,-0.0849,inactive
BRSK1 (BR serine/threonine kinase 1),1,0.472,1,-0.0649,-0.0115,inactive
ULK3 (unc-51 like kinase 3),1,0.472,1,-0.142,-0.0115,inactive
"ABL2 (ABL proto-oncogene 2, non-receptor tyrosine kinase)",1,0.472,1,0.0615,0.146,inactive
NRK (Nik related kinase),1,-1.48,0.877,-0.136,-0.00547,inactive
PRKAG2 (protein kinase AMP-activated non-catalytic subunit gamma 2),1,-0.259,0.954,0.00736,-0.0304,inactive
DIS3 (DIS3 exosome endoribonuclease and 3'-5' exoribonuclease),1,0.191,0.982,-0.157,-0.029,inactive
RPS6KA3 (ribosomal protein S6 kinase A3),1,0.472,1,-0.142,-0.0115,inactive
CAMK1G (calcium/calmodulin dependent protein kinase IG),1,0.472,1,-0.142,-0.0115,inactive
ULK4 (unc-51 like kinase 4),1,0.472,1,0.261,0.0985,inactive
STK17B (serine/threonine kinase 17b),1,0.472,1,0.0759,0.00321,inactive
CLK1 (CDC like kinase 1),1,-1.73,0.861,-0.261,-0.0407,inactive
RSKR (ribosomal protein S6 kinase related),1,0.472,1,-0.106,-0.0115,inactive
CUL1 (cullin 1),1,0.472,1,-0.142,0.336,inactive
LRRK2 (leucine rich repeat kinase 2),1,0.472,1,-0.142,0.0129,inactive
PRKAA2 (protein kinase AMP-activated catalytic subunit alpha 2),1,0.472,1,0.0271,0.261,inactive
SIK2 (salt inducible kinase 2),1,0.472,1,-0.142,-0.0115,inactive
PLK1 (polo like kinase 1),1,-3.32,0.761,0.261,0.0736,active
TP53 (tumor protein p53),1,0.472,1,0.0851,-0.0115,inactive
NTN4 (netrin 4),1,0.472,1,-0.142,-0.0115,inactive
CASK (calcium/calmodulin dependent serine protein kinase),1,0.472,1,0.0907,-0.0115,inactive
GRK7 (G protein-coupled receptor kinase 7),1,-0.685,0.927,0.0588,-0.0835,inactive
LIMK1 (LIM domain kinase 1),1,0.472,1,-0.142,-0.0115,inactive
KALRN (kalirin RhoGEF kinase),1,0.438,0.998,0.0347,-0.0136,inactive
TESK2 (testis associated actin remodelling kinase 2),1,0.472,1,0.107,-0.0115,inactive
LMTK1 (lemur tail kinase 1),1,-0.0933,0.964,-0.09,-0.00782,inactive
PKN2 (protein kinase N2),1,-1.05,0.904,0.0447,0.218,inactive
CEP290 (centrosomal protein 290),1,0.472,1,-0.142,0.0721,inactive
CKS2 (CDC28 protein kinase regulatory subunit 2),1,0.472,1,-0.142,-0.0115,inactive
MYH10 (myosin heavy chain 10),1,0.472,1,-0.142,0.0747,inactive
PAK2 (p21 (RAC1) activated kinase 2),1,0.472,1,-0.0726,0.169,inactive
TGFBR3 (transforming growth factor beta receptor 3),1,0.472,1,-0.0916,-0.0115,inactive
MAP3K8 (mitogen-activated protein kinase kinase kinase 8),1,-0.0488,0.967,0.203,0.0245,inactive
ERBB4 (erb-b2 receptor tyrosine kinase 4),1,-1.65,0.866,-0.122,-0.143,inactive
"GUCY2F (guanylate cyclase 2F, retinal)",1,0.472,1,-0.00789,-0.0115,inactive
EFNA4 (ephrin A4),1,-1.75,0.86,-0.235,-0.15,inactive
ACVR2B (activin A receptor type 2B),1,0.472,1,0.0242,-0.00338,inactive
PACSIN1 (protein kinase C and casein kinase substrate in neurons 1),1,0.472,1,-0.0255,0.113,inactive
KMT2B (lysine methyltransferase 2B),1,0.472,1,-0.0268,0.000275,inactive
SBK1 (SH3 domain binding kinase 1),1,0.472,1,-0.0636,-0.0115,inactive
MAP4K1 (mitogen-activated protein kinase kinase kinase kinase 1),1,0.472,1,0.131,-0.0115,inactive
GAK (cyclin G associated kinase),1,0.472,1,0.122,0.172,inactive
FXR1 (FMR1 autosomal homolog 1),1,-1.66,0.866,-0.0611,0.152,inactive
DGKB (diacylglycerol kinase beta),1,-0.88,0.915,0.224,-0.00775,inactive
PAPSS2 (3'-phosphoadenosine 5'-phosphosulfate synthase 2),1,-1.58,0.871,-0.174,0.0789,inactive
CALM1 (calmodulin 1),1,0.472,1,-0.0563,-0.0115,inactive
ILK (integrin linked kinase),1,0.472,1,0.0742,0.043,inactive
ILK (integrin linked kinase),2,0.472,1,-0.0337,0.0318,inactive
PDK4 (pyruvate dehydrogenase kinase 4),1,0.472,1,0.179,-0.0115,inactive
CDK1 (cyclin dependent kinase 1),1,0.472,1,-0.0358,0.00798,inactive
LATS2 (large tumor suppressor kinase 2),1,0.472,1,-0.142,-0.0115,inactive
LTK (leukocyte receptor tyrosine kinase),1,0.472,1,0.209,0.104,inactive
TSSK4 (testis specific serine kinase 4),1,0.472,1,-0.0622,0.0595,inactive
